Test results from the supplement of paper PMC11732987, “Enantioselective OTUD7B fragment discovery through chemoproteomics screening and high-throughput optimisation” (Communications Chemistry, 2025).
This is one part of the list. The data scatter; read single values as rough.

biological target: T1, PIK3C2A C385 (UniProt O00443); test: log2 mean competition ratio of IA-DTB cysteine labelling (DMSO/compound) (log2 ratio); higher = stronger cysteine engagement by compound; conditions: 50 µM; treatment time: 4 h; cell line lysate: HEK293T
T1 sequence (whole entry): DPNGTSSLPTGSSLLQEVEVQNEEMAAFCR
Description: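 IA-DTB competitive cysteine chemoproteomics in HEK293T RIPA lysate. Lysates were treated with compound 29 or 30 at 50 or 200 µM for 4 h, then IA-DTB (500 µM, 1 h), trypsin-digested, NeutrAvidin-enriched and analysed by diaPASEF. Competition ratio = intensity DMSO / intensity compound (n=4 treated, n=64 DMSO); binding: mean log2 CR ≥ 1 and p ≤ 0.05 plus QC filters. Target is the cysteine site.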

Compound | log2 mean competition ratio
O=C(CCl)N[C@H]1CCCc2ccccc21 | -0.355
O=C(CCl)N[C@@H]1CCCc2ccccc21 | -0.318

same assay, conditions: 200 µM; treatment time: 4 h; cell line lysate: HEK293T

Compound | log2 mean competition ratio
O=C(CCl)N[C@H]1CCCc2ccccc21 | 0.204
O=C(CCl)N[C@@H]1CCCc2ccccc21 | -0.394
